Test results as given in the supplement of paper PMC10849652.
The other results are listed elsewhere or left out.

Amino acid sequences for entries named in this document (tags omitted). A change or cut given only in a name is not applied to a line headed by its entry.
UniProt Q2VPA4, whole entry, looked up: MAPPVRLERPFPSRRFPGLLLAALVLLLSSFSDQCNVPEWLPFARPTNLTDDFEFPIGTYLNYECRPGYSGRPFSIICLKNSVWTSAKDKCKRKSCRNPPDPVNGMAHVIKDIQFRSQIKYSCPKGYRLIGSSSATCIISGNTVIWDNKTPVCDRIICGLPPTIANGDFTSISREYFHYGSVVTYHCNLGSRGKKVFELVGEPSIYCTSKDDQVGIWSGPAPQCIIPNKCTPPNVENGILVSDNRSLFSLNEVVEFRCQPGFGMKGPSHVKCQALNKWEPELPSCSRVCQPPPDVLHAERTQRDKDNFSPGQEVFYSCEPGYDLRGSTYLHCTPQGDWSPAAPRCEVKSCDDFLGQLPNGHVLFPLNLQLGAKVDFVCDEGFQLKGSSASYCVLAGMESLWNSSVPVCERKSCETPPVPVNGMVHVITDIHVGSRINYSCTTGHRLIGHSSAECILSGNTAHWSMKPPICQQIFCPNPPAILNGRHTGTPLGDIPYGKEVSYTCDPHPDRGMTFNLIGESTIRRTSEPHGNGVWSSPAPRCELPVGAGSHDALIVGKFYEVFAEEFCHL
UniProt Q7Z4G1, whole entry, looked up: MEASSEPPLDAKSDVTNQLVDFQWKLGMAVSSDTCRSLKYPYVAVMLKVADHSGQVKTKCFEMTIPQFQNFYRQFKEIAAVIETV
UniProt Q70SY1: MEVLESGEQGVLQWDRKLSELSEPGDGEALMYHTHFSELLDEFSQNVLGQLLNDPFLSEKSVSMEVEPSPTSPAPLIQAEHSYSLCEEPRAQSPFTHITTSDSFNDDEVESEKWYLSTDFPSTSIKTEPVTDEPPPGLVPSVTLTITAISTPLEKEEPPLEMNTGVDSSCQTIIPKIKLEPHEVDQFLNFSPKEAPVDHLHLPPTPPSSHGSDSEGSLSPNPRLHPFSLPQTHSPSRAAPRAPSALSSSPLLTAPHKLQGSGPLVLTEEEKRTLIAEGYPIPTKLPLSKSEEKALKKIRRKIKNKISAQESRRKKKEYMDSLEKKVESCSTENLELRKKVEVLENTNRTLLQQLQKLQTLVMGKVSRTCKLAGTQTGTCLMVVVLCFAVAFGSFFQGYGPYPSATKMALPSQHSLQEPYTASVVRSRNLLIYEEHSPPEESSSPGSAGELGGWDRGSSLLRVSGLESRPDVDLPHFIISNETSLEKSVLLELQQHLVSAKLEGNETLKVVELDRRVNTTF
UniProt Q8N668, whole entry, looked up: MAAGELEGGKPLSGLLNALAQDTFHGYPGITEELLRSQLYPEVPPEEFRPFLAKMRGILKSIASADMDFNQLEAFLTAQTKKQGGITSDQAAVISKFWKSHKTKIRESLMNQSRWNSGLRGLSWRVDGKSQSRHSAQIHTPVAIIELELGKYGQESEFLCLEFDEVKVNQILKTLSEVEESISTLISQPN
UniProt O14810: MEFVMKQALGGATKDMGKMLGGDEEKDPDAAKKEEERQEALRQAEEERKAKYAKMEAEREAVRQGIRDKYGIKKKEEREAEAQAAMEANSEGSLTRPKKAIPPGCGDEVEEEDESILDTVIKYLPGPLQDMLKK
UniProt P29762, whole entry, looked up: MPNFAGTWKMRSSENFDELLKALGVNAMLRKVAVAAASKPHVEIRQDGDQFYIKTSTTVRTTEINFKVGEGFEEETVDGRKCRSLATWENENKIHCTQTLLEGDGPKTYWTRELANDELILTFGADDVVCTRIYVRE
UniProt Q6UUV7: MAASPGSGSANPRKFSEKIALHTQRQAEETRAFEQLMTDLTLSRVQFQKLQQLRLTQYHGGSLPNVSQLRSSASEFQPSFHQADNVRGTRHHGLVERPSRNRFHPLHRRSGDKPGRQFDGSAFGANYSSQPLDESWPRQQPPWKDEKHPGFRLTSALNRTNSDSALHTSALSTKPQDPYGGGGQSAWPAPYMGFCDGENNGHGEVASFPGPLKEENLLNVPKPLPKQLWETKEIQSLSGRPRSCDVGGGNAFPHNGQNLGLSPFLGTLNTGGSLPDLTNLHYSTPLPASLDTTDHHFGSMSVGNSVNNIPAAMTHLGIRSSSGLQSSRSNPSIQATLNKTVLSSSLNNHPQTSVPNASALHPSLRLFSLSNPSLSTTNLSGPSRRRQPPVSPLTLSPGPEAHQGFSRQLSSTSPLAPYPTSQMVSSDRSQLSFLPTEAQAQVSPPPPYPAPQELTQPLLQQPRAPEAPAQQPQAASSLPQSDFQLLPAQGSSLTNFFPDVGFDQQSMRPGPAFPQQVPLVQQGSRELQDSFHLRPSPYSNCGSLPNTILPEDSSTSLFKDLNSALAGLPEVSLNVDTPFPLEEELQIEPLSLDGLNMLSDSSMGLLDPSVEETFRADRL
UniProt Q9BXS0: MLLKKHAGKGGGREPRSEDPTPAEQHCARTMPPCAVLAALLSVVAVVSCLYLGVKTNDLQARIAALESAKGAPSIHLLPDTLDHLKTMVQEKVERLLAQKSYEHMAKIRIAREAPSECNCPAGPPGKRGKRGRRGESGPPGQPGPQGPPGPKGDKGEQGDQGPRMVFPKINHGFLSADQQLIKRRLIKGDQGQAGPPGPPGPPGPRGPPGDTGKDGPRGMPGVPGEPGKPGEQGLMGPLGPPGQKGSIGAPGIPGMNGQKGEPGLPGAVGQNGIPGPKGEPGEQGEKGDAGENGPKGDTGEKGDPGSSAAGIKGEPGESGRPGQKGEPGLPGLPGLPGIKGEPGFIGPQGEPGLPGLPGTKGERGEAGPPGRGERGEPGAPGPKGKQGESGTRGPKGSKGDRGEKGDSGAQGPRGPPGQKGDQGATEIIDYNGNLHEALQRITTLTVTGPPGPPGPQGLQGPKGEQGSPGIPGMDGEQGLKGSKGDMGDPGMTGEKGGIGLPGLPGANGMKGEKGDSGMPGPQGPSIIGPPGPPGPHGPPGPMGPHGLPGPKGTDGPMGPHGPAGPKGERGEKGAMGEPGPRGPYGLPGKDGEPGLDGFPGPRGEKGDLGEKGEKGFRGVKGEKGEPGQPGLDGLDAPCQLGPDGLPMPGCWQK
UniProt P78368: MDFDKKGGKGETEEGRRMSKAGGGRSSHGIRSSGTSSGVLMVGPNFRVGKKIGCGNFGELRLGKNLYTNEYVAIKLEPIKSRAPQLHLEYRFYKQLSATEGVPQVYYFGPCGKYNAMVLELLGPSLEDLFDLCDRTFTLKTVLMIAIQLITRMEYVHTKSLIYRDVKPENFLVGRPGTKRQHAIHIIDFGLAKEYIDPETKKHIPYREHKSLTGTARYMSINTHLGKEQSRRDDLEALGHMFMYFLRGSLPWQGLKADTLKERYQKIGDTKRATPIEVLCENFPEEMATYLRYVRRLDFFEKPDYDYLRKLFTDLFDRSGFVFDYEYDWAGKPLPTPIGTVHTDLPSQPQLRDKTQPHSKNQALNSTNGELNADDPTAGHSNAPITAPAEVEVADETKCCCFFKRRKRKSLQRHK
UniProt Q8N6G5: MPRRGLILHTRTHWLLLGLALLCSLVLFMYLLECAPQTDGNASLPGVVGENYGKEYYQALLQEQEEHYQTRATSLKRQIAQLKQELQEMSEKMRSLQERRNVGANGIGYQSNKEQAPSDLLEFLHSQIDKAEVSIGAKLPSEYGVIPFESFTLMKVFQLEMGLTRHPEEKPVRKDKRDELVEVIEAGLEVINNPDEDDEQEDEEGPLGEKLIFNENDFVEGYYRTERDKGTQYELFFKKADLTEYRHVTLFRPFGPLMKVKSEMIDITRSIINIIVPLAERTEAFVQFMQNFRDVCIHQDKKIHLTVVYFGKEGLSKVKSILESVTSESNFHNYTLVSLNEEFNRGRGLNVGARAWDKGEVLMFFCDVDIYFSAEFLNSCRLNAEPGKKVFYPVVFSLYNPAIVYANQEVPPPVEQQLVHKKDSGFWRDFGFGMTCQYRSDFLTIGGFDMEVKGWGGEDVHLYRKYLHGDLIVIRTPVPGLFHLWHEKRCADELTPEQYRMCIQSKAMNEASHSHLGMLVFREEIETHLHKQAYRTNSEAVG
UniProt Q9HCH3: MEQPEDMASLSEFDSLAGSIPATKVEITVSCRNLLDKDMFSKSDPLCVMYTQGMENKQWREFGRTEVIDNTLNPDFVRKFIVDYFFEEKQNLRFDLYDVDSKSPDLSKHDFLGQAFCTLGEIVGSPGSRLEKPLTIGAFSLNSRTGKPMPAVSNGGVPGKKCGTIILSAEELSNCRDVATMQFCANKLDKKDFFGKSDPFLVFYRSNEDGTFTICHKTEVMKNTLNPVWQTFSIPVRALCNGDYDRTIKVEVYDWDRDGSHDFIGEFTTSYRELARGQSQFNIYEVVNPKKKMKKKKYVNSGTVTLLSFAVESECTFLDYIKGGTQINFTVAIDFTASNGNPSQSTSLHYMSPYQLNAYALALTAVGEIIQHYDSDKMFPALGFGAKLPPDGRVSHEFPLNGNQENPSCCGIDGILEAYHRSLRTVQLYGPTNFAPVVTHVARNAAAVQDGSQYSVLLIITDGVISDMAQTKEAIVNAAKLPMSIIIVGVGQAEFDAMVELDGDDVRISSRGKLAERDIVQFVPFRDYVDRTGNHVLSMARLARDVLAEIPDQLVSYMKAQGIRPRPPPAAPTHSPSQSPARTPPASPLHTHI
UniProt Q86T23: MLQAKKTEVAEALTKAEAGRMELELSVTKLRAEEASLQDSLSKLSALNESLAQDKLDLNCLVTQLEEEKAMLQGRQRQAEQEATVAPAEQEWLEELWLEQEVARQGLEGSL
UniProt Q8NHY2, whole entry, looked up: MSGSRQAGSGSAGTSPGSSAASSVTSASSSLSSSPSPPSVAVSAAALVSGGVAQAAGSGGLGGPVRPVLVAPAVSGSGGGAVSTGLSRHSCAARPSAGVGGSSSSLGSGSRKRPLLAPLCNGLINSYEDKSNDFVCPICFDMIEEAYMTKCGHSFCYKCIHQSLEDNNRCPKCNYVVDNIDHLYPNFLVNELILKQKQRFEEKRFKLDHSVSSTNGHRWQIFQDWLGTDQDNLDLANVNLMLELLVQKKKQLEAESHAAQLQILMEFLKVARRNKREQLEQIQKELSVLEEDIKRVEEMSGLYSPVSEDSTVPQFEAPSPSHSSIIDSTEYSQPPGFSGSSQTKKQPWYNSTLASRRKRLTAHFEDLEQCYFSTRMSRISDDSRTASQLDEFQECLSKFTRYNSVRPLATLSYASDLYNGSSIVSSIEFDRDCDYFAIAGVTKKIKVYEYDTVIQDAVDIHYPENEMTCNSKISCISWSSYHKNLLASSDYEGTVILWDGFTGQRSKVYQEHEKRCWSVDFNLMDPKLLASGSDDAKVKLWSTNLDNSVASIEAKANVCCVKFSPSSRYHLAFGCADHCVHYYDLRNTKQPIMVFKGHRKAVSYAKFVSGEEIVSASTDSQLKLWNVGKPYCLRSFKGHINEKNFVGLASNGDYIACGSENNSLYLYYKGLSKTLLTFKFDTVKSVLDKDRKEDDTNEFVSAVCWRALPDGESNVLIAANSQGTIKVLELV
UniProt Q5TA50: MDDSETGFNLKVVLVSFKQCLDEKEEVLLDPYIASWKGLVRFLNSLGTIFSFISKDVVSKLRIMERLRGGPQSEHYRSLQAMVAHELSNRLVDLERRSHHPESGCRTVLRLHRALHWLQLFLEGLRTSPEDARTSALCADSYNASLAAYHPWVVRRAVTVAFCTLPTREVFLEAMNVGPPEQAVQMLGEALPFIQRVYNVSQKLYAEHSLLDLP
UniProt P15169: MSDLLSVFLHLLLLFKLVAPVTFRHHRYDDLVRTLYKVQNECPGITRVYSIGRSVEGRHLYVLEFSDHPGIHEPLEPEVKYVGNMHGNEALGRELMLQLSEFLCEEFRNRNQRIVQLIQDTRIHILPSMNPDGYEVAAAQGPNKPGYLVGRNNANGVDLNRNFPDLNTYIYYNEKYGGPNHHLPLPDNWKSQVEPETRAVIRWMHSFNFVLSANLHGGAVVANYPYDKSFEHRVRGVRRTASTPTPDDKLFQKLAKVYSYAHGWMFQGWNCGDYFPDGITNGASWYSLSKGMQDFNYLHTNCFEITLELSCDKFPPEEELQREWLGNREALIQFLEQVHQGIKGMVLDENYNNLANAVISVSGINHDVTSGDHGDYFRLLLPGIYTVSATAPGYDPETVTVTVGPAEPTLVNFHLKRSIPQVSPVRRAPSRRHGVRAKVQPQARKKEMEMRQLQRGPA
UniProt P43155: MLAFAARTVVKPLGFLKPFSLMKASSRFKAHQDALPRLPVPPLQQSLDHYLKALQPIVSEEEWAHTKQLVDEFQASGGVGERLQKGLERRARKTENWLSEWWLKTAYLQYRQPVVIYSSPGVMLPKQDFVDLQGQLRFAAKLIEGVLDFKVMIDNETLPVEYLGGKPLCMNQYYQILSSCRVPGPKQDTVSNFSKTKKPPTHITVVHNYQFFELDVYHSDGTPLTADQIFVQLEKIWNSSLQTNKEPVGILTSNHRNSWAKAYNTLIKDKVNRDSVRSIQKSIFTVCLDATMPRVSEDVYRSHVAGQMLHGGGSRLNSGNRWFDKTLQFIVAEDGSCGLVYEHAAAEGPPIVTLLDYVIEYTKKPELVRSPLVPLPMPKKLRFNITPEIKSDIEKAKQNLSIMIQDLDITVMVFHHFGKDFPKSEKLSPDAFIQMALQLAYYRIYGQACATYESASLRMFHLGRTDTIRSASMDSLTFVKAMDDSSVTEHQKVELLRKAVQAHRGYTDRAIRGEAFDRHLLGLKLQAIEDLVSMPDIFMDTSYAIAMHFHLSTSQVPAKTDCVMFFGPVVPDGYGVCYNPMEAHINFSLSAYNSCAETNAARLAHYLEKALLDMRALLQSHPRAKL

What was measured:
Test in all cases: log2 fold change, soluble protein after heating vs DMSO (PISA); higher = thermal stabilisation; K562 cells, 10 uM, 30 min; active = over 0.2 and 3.5 SD of the protein, either way, in both replicates (recomputed)
rucaparib = compound: CNCc1ccc(-c2[nH]c3cc(F)cc4c3c2CCNC4=O)cc1 [rucaparib]
Outline: (§1)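 K562 cells (2×10^6 cells/mL) were treated with 10 μM compound for 30 min, and aliquots were heated for 3 min over 48°C-58°C. Pooled aliquots were extracted in PBS with 0.5% NP-40 at 4°C, and the supernatant after 21,000xg for 90 min was measured by TMTpro 16plex LC-MS/MS with channel sums equalised. Reported thermal stability, relative to control samples and from duplicates, is a log2 fold change.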

encorafenib = compound: COC(=O)N[C@@H](C)CNc1nccc(-c2cn(C(C)C)nc2-c2cc(Cl)cc(NS(C)(=O)=O)c2F)n1 [encorafenib]
Outline: as §1

[1] = compound: CNC(=O)C1=CC=CC=C1NC2=NC(=NC=C2Cl)NC3=C(C=C(C=C3)N4CCOCC4)OC
Outline: as §1

defactinib = compound: CNC(=O)c1ccc(Nc2ncc(C(F)(F)F)c(NCc3nccnc3N(C)S(C)(=O)=O)n2)cc1 [defactinib]
Outline: as §1

[2] = compound: COC(=O)[C@H](CCSC)NC(=O)C1=C(C=C(C=C1)NC[C@H](CS)N)C2=CC=CC=C2
Outline: as §1

sotrastaurin = compound: CN1CCN(c2nc(C3=C(c4c[nH]c5ccccc45)C(=O)NC3=O)c3ccccc3n2)CC1 [sotrastaurin]
Outline: as §1

alvocidib = compound: CN1CC[C@H](c2c(O)cc(O)c3c(=O)cc(-c4ccccc4Cl)oc23)[C@H](O)C1 [alvocidib]
Outline: as §1

Tubastatin A = compound: CN1CCc2c(c3ccccc3n2Cc2ccc(C(=O)NO)cc2)C1 [Tubastatin A]
Outline: as §1

saracatinib = compound: CN1CCN(CCOc2cc(OC3CCOCC3)c3c(Nc4c(Cl)ccc5c4OCO5)ncnc3c2)CC1 [saracatinib]
Outline: as §1

[3] = compound: CNc1nc(-c2ccc3c(N)n[nH]c3c2)cc(N2C[C@@H](C(=O)NC3CCCCC3)CC[C@H]2C)n1
Outline: as §1

Measured: log2 fold change

CS (UniProt F8VU34)
inactive: rucaparib 0.268 | encorafenib 0.158

CR1L (UniProt Q2VPA4)
inactive: [1] -0.036

COMMD6 isoform 2 (UniProt Q7Z4G1)
inactive: [1] -0.197 | defactinib 0.194 | rucaparib -0.106 | encorafenib -0.077 | [2] 0.008

Taken from the entries so far (2 entries):
CR1L (UniProt Q2VPA4)
inactive: [1] -0.036

COMMD6 isoform 2 (UniProt Q7Z4G1)
inactive: [1] -0.197 | defactinib 0.194 | rucaparib -0.106 | encorafenib -0.077 | [2] 0.008

More entries follow:

CRIP2 isoform 2 (UniProt P52943)
inactive: sotrastaurin 0.039 | alvocidib 0.231 | Tubastatin A 0.016 | [1] 0.028 | defactinib 0.024 | rucaparib -0.074 | encorafenib -0.157 | [2] 0.021

CREB3L2 (UniProt Q70SY1)
inactive: Tubastatin A 0.282 | [1] -0.19 | defactinib -0.039 | [2] -0.172

COX10 (UniProt Q12887)
inactive: saracatinib 0.068 | alvocidib 0.049 | Tubastatin A 0.051 | [1] -0.163 | defactinib -0.013 | rucaparib 0.011 | [3] -0.054 | encorafenib 0.003 | [2] -0.023

COMMD1 (UniProt Q8N668)
inactive: sotrastaurin -0.038 | Tubastatin A -0.213 | [1] 0.119 | defactinib -0.151 | rucaparib 0.15 | encorafenib -0.028 | [2] 0.092

COLEC11 isoform 10 (UniProt Q9BWP8)
inactive: saracatinib -0.274 | alvocidib -0.023 | defactinib -0.092 | [3] -0.109 | [2] -0.047

CPLX1 (UniProt O14810)
inactive: saracatinib -0.09 | [1] -0.019 | defactinib 0.074 | [3] -0.339 | [2] 0.108

CRYBB1 (UniProt P53674)
inactive: saracatinib 0.136 | [1] 0.868 | [3] 0.256

CRABP1 (UniProt P29762)
inactive: defactinib 0.499 | [2] -0.017

CRYM (UniProt Q14894)
inactive: saracatinib 0.156 | alvocidib 0.036 | Tubastatin A -0.328 | [1] -0.056 | [3] -0.219

CRTC3 (UniProt Q6UUV7)
inactive: sotrastaurin 0.044 | Tubastatin A -0.109 | defactinib 0.025 | [2] -0.06

COL25A1 (UniProt Q9BXS0)
inactive: [1] -0.011

COPS3 isoform 2 (UniProt Q9UNS2)
inactive: sotrastaurin 0.134 | Tubastatin A -0.005 | defactinib 0.109 | rucaparib -0.055 | encorafenib -0.041 | [2] 0.059

CPA4 (UniProt Q9UI42)
inactive: Tubastatin A 0.102 | defactinib -0.333 | rucaparib -0.15 | encorafenib -0.271 | [2] -0.193

CSNK1G2 (UniProt P78368)
inactive: sotrastaurin -0.163 | Tubastatin A -0.066 | rucaparib 0.044 | encorafenib -0.093

CSGALNACT2 (UniProt Q8N6G5)
inactive: alvocidib -0.155

CRNN (UniProt Q9UBG3)
inactive: [1] -0.463

CPNE5 (UniProt Q9HCH3)
inactive: Tubastatin A 0.082 | [1] 0.049

CROCCP2 (UniProt Q86T23)
inactive: [1] -0.057 | rucaparib -0.187 | encorafenib -0.086

COP1 (UniProt Q8NHY2)
inactive: alvocidib -0.048

COX14 (UniProt Q96I36)
inactive: sotrastaurin -0.062 | alvocidib 0.075 | [1] 0.024 | rucaparib -0.117 | encorafenib 0.093

COMMD3 (UniProt Q9UBI1)
inactive: saracatinib -0.032 | alvocidib -0.158 | Tubastatin A -0.159 | defactinib -0.031 | rucaparib 0.064 | [3] 0.033 | encorafenib 0.063 | [2] 0.051

CRADD (UniProt P78560)
inactive: alvocidib -0.305 | Tubastatin A 0.163 | [1] -0.01 | defactinib -0.07 | [2] 0.102

CORO6 isoform 5 (UniProt Q6QEF8)
inactive: sotrastaurin -0.005 | Tubastatin A -0.003 | defactinib 0.115 | [2] 0.043

CPTP (UniProt Q5TA50)
inactive: sotrastaurin -0.167 | [1] 0.03

CPN1 (UniProt P15169)
inactive: saracatinib 0.139 | Tubastatin A -0.081 | [1] 0.153 | defactinib -0.029 | [3] 0.058 | [2] 0.156

CRABP2 (UniProt P29373)
inactive: saracatinib 0.029 | [3] -0.072

COL2A1 (UniProt P02458)
inactive: saracatinib -0.066 | alvocidib -0.072 | Tubastatin A -0.142 | defactinib 0.345 | [3] 0 | [2] 0.2

CRAT (UniProt P43155)
inactive: alvocidib 0.465
